Data as given in patent US20200155555A1, “VITAMIN RECEPTOR DRUG DELIVERY CONJUGATES FOR TREATING INFLAMMATION” (Endocyte, Inc., priority 2007, published 2020).
Not every detail of the peptide structures is certain; ends, links or a residue may be inferred.

Assays:
[1] = tested on: rat thioglycollate-elicited macrophages (TG-macs); experiment: LPS/IFN-γ stimulated cytokine production, rat cytokine antibody array; assay type: cell-based; details: 100 nM, 2 h pulse, 70 h chase; LPS 5 μg/mL and IFN-γ 100 ng/mL for last 24 h
DHFR = target: T1, DHFR (Mus musculus, UniProt P00375); experiment: DHFR activity in lysate of treated RAW264.7 cells; assay type: cell-based, murine; details: 2 h pulse of 100 nM, 22 h chase
T1 construct: endogenous in cells; host or cells: RAW264.7 cells
T1 sequence (P00375 1-187): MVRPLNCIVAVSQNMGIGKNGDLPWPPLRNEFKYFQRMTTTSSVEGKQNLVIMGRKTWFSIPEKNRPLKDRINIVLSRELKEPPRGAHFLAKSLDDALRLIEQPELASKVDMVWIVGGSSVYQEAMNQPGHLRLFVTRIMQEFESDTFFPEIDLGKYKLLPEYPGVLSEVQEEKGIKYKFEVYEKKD
Method: RAW264.7 cells were treated with vehicle (medium), EC0746 (100 nM) without or with 100-fold excess free folate, aminopterin (AMT, 100 nM), methotrexate (MTX, 100 nM), or excess free folate alone (10 μM). After 1 h incubation, the drug-containing media were replaced with fresh medium and the cells were allowed to incubate further for 24 h. At the end of incubation, the cells were lysed and the DHFR activity in cell lysates was measured using a commercial DHFR assay kit (Sigma-Aldrich, Saint Louis, Mo.).

For N=c1[nH]c(N)nc2ncc(CNc3ccc(C(=O)N[C@@H](CCC(=O)NNC(=O)OCCSSC[C@H](NC(=O)[C@H](CCC(=O)NC[C@H](O)[C@@H](O)[C@H](O)[C@H](O)CO)NC(=O)[C@H](CCC(=O)O)NC(=O)[C@H](CCC(=O)NC[C@H](O)[C@@H](O)[C@H](O)[C@H](O)CO)NC(=O)[C@H](CCC(=O)O)NC(=O)[C@H](CCC(=O)NC[C@H](O)[C@@H](O)[C@H](O)[C@H](O)CO)NC(=O)CC[C@H](NC(=O)c4ccc(NCc5cnc6nc(N)[nH]c(=O)c6n5)cc4)C(=O)O)C(=O)O)C(=O)O)cc3)nc12 [EC0746], which “inhibition of cytokine/chemokine release” value [1] is on record?
Its value is “inhibited a range of cytokines/chemokines”.

And the “inhibition of DHFR activity in RAW264.7 cells” value (DHFR)?
Its value is “inhibited DHFR activity in RAW264.7 cells to a similar degree as AMT and MTX”.
